Source: paper PMC11407766, “OsNF-YB7 inactivates OsGLK1 to inhibit chlorophyll biosynthesis in rice embryo”
Results are given in words; binding and its absence hold for the method and conditions named. Binding can be weak; no strength is given. Tags and fused reporters may be left off the sequences shown. For some of these results: Binding seen in cells or lysates may run through a third protein. Each block holds one binder with its values, some of them ahead of it.

Tests used:
[1] = biological target: OsNF-YB7 fused with the GAL4 DNA-binding domain (BD), full length (rice (Oryza sativa)); assay: two-hybrid; yeast AH109; OsNF-YB7 (full length or truncated) as BD bait in pGBKT7, OsGLK1/2 (full length or truncated) as AD prey in pGADT7; growth on SD/-Leu-Trp-His, 3 days at 28 °C
[2] = biological target: cLUC-OsNF-YB7 (rice (Oryza sativa)); assay: split reporter; split complementary luciferase; nLUC-OsGLK1/2 and cLUC-OsNF-YB7 co-infiltrated into N. benthamiana leaves, LUC activity imaged after 48 hr
[3] = biological target: C-terminus of OsNF-YB7 fused with the GAL4 DNA-binding domain (rice (Oryza sativa)); assay: two-hybrid; yeast AH109; OsNF-YB7 (full length or truncated) as BD bait in pGBKT7, OsGLK1/2 (full length or truncated) as AD prey in pGADT7; growth on SD/-Leu-Trp-His, 3 days at 28 °C
[4] = biological target: nYFP-OsNF-YB7 (rice (Oryza sativa)); assay: split reporter; BiFC; nYFP-OsNF-YB7 and cYFP-OsGLK1 transiently coexpressed in N. benthamiana leaf epidermal cells, YFP by confocal microscopy 48 hr after infiltration
[5] = biological target: OsNF-YB7-GFP (rice (Oryza sativa)); assay: co-IP; OsNF-YB7-GFP and OsGLK1-Flag coexpressed in rice protoplasts; lysate (50 mM Tris-HCl, 150 mM NaCl, 5 mM EDTA pH 8.0, 1% NP-40) on GFP-Trap agarose beads, 4 °C, 3 hr; blots with anti-GFP and anti-Flag

binding [1]: binds
B1: OsGLK2 in pGADT7 (GAL4 activation domain fusion) (protein, UniProt Q5NAN5 1-539)
chain: MLEVSTLRSPKADQRAGVGGHHVVGFVPAPPSPADVADEVDAFIVDDSCLLEYIDFSCCDVPFFHADDGDILPDLEVDPTELLAEFASSPDDEPPPTTSAPGPGEPAAAAGAKEDVKEDGAAAAAAAAAADYDGSPPPPRGKKKKDDEERSSSLPEEKDAKNGGGDEVLSAVTTEDSSAGAAKSCSPSAEGHSKRKPSSSSSSAAAGKNSHGKRKVKVDWTPELHRRFVQAVEQLGIDKAVPSRILELMGIECLTRHNIASHLQKYRSHRKHLMAREAEAASWTQKRQMYTAAAAAAAVAAGGGPRKDAAAATAAVAPWVMPTIGFPPPHAAAMVPPPPHPPPFCRPPLHVWGHPTAGVEPTTAAAPPPPSPHAQPPLLPVWPRHLAPPPPPLPAAWAHGHQPAPVDPAAYWQQQYNAARKWGPQAVTPGTPCMPPPLPPAAMLQRFPVPPVPGMVPHPMYRPIPPPSPPQGNKLAALQLQLDAHPSKESIDAAIGDVLVKPWLPLPLGLKPPSLDSVMSELHKQGIPKVPPAASGAAG

binding [2]: binds
B2: nLUC-OsGLK2 (protein, UniProt Q5NAN5 1-539)
chain: B1 chain

binding [3]: binds
binding [1]: binds
B3: OsGLK1 fused with the yeast GAL4 activation domain (AD), full length (protein, UniProt Q5Z5I4 1-455)
chain: MLAVSPAMCPDIEDRAAVAGDAGMEVVGMSSDDMDQFDFSVDDIDFGDFFLRLEDGDVLPDLEVDPAEIFTDFEAIATSGGEGVQDQEVPTVELLAPADDVGVLDPCGDVVVGEENAAFAGAGEEKGGCNQDDDAGEANVDDGAAAVEAKSSSPSSTTSSSQEAESRHKSSSKSSHGKKKAKVDWTPELHRRFVQAVEQLGIDKAVPSRILEIMGIDSLTRHNIASHLQKYRSHRKHMIAREAEAASWTQRRQIYAAGGGAVAKRPESNAWTVPTIGFPPPPPPPPSPAPIQHFARPLHVWGHPTMDPSRVPVWPPRHLVPRGPAPPWVPPPPPSDPAFWHHPYMRGPAHVPTQGTPCMAMPMPAARFPAPPVPGVVPCPMYRPLTPPALASKNQQDAQLQLQVQPSSESIDAAIGDVLSKPWLPLPLGLKPPSVDSVMGELQRQGVANVPPACG

binding [4]: binds
B4: cYFP-OsGLK1 (protein, UniProt Q5Z5I4 1-455)
chain: B3 chain

binding [5]: binds
B5: OsGLK1-Flag (protein, UniProt Q5Z5I4 1-455)
chain: B3 chain

binding [2]: binds
B6: nLUC-OsGLK1 (protein, UniProt Q5Z5I4 1-455)
chain: B3 chain
